At least one compound was matched to its structure with a doubt left.
What was measured:
YAP = experiment: immunofluorescence staining of YAP subcellular localization; type: cell-based, human; conditions: MDA-MB-231; 1 h
Method: HEK293A or MCF10A cells were seeded on coverslips. After treatment, cells were fixed with 4% paraformaldehyde-PBS for 15 min and permeabilized with 0.1% Triton X-100 in TBS. After blocking in 3% FBS in PBS for 30 min, cells were incubated with primary antibodies overnight at 4° C. After three washes with PBS, cells were incubated with Alexa Fluor 488- or 555-conjugated secondary antibodies (Invitrogen, 1:1000 dilution) for 2 h at room temperature. Slides were then washed three times and mounted. Immunofluorescence was detected using Olympus confocal microscopy. Primary antibodies used were: YAP (H-125) and YAP (63.7) from Santa Cruz, HA from Covance, β-catenin from BD biosciences. Phalloidin alexa 488 was used to stain actin filaments. For paraffin-embedded tissues from control or LPA receptor transgenic mammary glands, 5 μm sections were prepared and subjected for immunostaining Following deparaffinization and hydration, slides were heated in sub-boiling buffer (10 mM sodium citrate, pH 6.0) for 15 min for antigen retrieval. TAZ antibody (H-70) from Santa Cruz was used to as primary antibody.

YAP/TAZ [1] = experiment: immunoblotting / phos-tag gels of YAP/TAZ phosphorylation in cultured cell lines; type: cell-based, human
Method: Immunoblotting was performed using standard protocol. […] The phos-tag reagents were purchased from Wako Chemicals, and gels containing phos-tag were prepared according to manufacture's instructions. YAP proteins can be separated into multiple bands in the presence of phos-tag depending on differential phosphorylation levels, with phosphorylated proteins run migrate slower.
(§1) Immunoblotting was performed using standard protocol. Antibodies for pYAP (S127), YAP, TAZ (V386), pCREB, CREB, pMLC2 (S19), pMLC2 (T18/S19), MST1, MST2, and Lats1 were from Cell Signaling Technology. Lats2 antibody was from Bethyl laboratories. HA-HRP, GFP, and MLC2 antibodies were from Santa Cruz biotechnology. Tubulin, HSP90 and Flag-HRP were purchased from Sigma Aldrich. PKA antibody was obtained from BD biosciences. GAPDH antibody was a gift from Dr. Yan Luo. Yki antibody was a gift from Dr. Kenneth Irvine. The phos-tag reagents were purchased from Wako Chemicals, and gels containing phos-tag and MnC12 were prepared according to manufacturer's instructions. YAP proteins can be separated into multiple bands on phos-tag gels, with the phosphorylated form of YAP proteins migrating at a slower speed.

CTGF = experiment: expression of YAP/TAZ target gene CTGF; type: cell-based, human; conditions: MCF10A; 10 μM forskolin, 1 or 4 hr
Method: (§2) Immunoblotting was performed using standard protocol. Antibodies for pYAP (S127), pYAP(S381/384), pMST1/2, TAZ, pERK, ERK1/2, Lats1, MST1, pAKT (S473), pS6K, S6K were from Cell Signaling, antibodies for YAP (H-125), CTGF, Cyr61, Gq/11, G13 and 14-3-3θ were from Santa Cruz, TEAD1 antibody was from BD biosciences, pTAZ (S89) antibody was in-house raised, GAPDH antibody was a gift from Dr. Yan Luo. The phos-tag reagents were purchased from Wako Chemicals, and gels containing phos-tag were prepared according to manufacture's instructions. YAP proteins can be separated into multiple bands in the presence of phos-tag depending on differential phosphorylation levels, with phosphorylated proteins run migrate slower.
Following various treatments, cells were washed with cold phosphate-buffered saline and subjected to RNA extraction using an RNeasy Plus mini kit (Qiagen). […] Complementary DNA was then diluted and used for quantification (with β-actin gene as a control) by real-time PCR, which was performed using KAPA SYBR FAST qPCR master mix (Kapa Biosystems) and the 7300 real-time PCR system (Applied Biosystems). […]
RNA extraction, reverse transcription and real-time PCR. […] After dilution, cDNA levels were quantified by real-time PCR using KAPA SYBR FAST qPCR master mix (Kapa Biosystems) and the 7300 real-time PCR system (Applied Biosystems). […]

Lats1 [2] = experiment: Lats1 phosphorylation (S909, T1079) by immunoblotting; type: cell-based, human; conditions: HEK293A; Forskolin 10 μM, 1 h
Method: Cells were lysed using mild lysis buffer (50 mM HEPES at pH 7.5, 150 mM NaCl, 1 mM EDTA, 1% NP-40, 10 mM pyrophosphate, 10 mM glycerophosphate, 50 mM NaF, 1.5 mM Na3VO4, protease inhibitor cocktail [Roche], 1 mM PMSF). Cell lysates were centrifuged for 10 min at 4° C., and supernatants were used for immunoprecipitation. YAP (Bethyl Laboratories) antibody was mixed with the supernatant for 1 h, and protein A-agarose beads were added in for 1 h. Immunoprecipitates were washed four times with lysis buffer, and proteins were eluted with SDS-PAGE sample buffer. For kinase assay, MST1, Lats1 or HA-Lats2 was immunoprecipitated similarly using MST1, Lats1 (Cell Signaling) or HA (Covance) antibodies.
as §2, with “YAP proteins can be separated into multiple bands in the presence of phos-tag depending on differential phosphorylation levels, with phosphorylated proteins run migrate slower.” left out

Lats1 [3] = experiment: Lats1 immunoprecipitation kinase assay with GST-YAP substrate; type: cell-based, human; conditions: MDA-MB-231; 10 μM forskolin, 1 hr
YAP/TAZ [4] = experiment: immunoblotting of YAP/TAZ phosphorylation in mouse cells (primary hepatocytes, 3T3-L1); type: cell-based; conditions: 10 μM forskolin, 100 μM IBMX or 5 μM KT5720, 1 hr
Method: as §2
as §1, with “YAP proteins can be separated into multiple bands on phos-tag gels, with the phosphorylated form of YAP proteins migrating at a slower speed.” left out

CREB = CREB phosphorylation by immunoblotting; type: cell-based, human; conditions: MDA-MB-231; 10 μM
Method: as §2
as §1, with “YAP proteins can be separated into multiple bands on phos-tag gels, with the phosphorylated form of YAP proteins migrating at a slower speed.” left out

Mst1/2 [5] = conditions: forskolin treatment (Yu et al. 2012b); cited from earlier work
Mst1/2 [6] = experiment: Mst kinase activity and phosphorylation in treated cells; type: cell-based, human; conditions: HEK293A with FLAG-MST2; Forskolin 2 or 10 μM, 1 h
Method: Following immunoprecipitation, protein beads were washed once with wash buffer (40 mM HEPES, 200 mM NaCl) and once with kinase assay buffer (30 mM HEPES, 50 mM potassium acetate, 5 mM MgCl2). The immunoprecipitated Mst1 was subjected to a kinase assay in the presence of 500 μM cold ATP, 10 μCi [γ-^32P] ATP, and 1 μg of GST-Mob expressed and purified from Escherichia coli as substrate. The reaction mixtures were incubated for 30 min at 30° C., terminated with SDS sample buffer, and subjected to SDS-PAGE and autoradiography. Lats1 or HA-Lats2 kinase assays were performed similarly but using GST-YAP as substrates in the absence of [γ-^32P] ATP. The phosphorylation of GST-YAP at S127 was determined by immunoblotting using pYAP antibody.

[7] = test system: myosin light chain 2 (MLC2); experiment: MLC2 phosphorylation by immunoblotting; type: cell-based, human; conditions: MDA-MB-231; 10 μM forskolin, 1 hr
[8] = U2OS, MCF10A, HEK293A and MEF, 10 μM forskolin, 1 hr

SMILES	YAP localization (immunofluorescence) (YAP)	YAP phosphorylation (Ser127, phos-tag), time course (YAP/TAZ [1]; MDA-MB-231, 10 μM)	YAP phosphorylation (YAP/TAZ [1]; MDA-MB-231, different concentrations of Forskolin, 1 h)	TAZ phosphorylation (electrophoretic mobility) (YAP/TAZ [1]; [8])	TAZ protein levels (YAP/TAZ [1]; [8])	YAP phosphorylation (YAP/TAZ [1]; [8])	expression of CTGF (CTGF)	Lats1 phosphorylation (Lats1 [2])	Lats kinase activity (Lats1 [3])	TAZ protein level (YAP/TAZ [4])	YAP phosphorylation (YAP/TAZ [4])	phosphorylation of CREB, time course (CREB)	MST1 kinase activity and phosphorylation at the activation loop (Mst1/2 [5])	MST phosphorylation (Mst1/2 [6])	phosphorylation of MLC2 [7]	YAP phosphorylation by PDE inhibitors (YAP/TAZ [1]; MDA-MB-231, ibudilast 100 μM, IBMX 100 μM, rolipram 50 μM, theophylline 1 mM, 1 hr)
C=C[C@@]1(C)CC(=O)[C@]2(O)[C@@]3(C)[C@@H](O)CCC(C)(C)[C@@H]3[C@H](O)[C@H](OC(C)=O)[C@@]2(C)O1 [forskolin]	accumulation of cytoplasmic YAP	similarly induced	increased	increased	modestly reduced	increased	inhibited	increased	induced	decreased	induced	similarly induced	not modulated	not	reduced	
CC(C)C(=O)c1c(C(C)C)nn2ccccc12 [ibudilast]																induced YAP phosphorylation
